Measurements published in patent US20220275067A1 (PROTHENA BIOSCIENCES, published 2022).
Numbering of substitutions follows the chain as printed. No constants are given. Whether binding was seen depends on the method and setting. Some entries that bind do so weakly or less than the wild type.

Protein sequences, listed by entry. Tags and fused reporters are not part of them. Lines headed by an entry give the natural chain unless they say otherwise; changes in a name come on top. Chains listed by the source or under a name are the forms on record and can include a tag or linker.
tau in samples from brains of Alzheimer's disease patients (P10636, form named): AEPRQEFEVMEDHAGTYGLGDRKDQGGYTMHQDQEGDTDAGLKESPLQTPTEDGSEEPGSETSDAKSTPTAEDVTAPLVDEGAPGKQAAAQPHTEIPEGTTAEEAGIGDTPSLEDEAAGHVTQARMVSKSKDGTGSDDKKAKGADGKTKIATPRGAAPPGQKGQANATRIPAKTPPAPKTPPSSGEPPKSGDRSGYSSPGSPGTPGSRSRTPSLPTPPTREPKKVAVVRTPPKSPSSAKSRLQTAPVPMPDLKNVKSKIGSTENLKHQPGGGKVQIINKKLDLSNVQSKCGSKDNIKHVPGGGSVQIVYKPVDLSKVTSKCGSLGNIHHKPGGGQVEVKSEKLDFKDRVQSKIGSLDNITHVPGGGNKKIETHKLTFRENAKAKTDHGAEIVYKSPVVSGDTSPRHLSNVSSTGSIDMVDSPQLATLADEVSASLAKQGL

Experiments:
[1] = target: tau in normal control human brain sections (human) (UniProt P10636); assay: Immunohistochemistry on 10 um fresh-frozen human brain sections, DAB detection (BOND Polymer Refine), hematoxylin counterstain
[2] = target: tau in samples from brains of Alzheimer's disease patients (human) (UniProt P10636); assay: as above
[3] = target: tau in samples from brains of Alzheimer's disease patients (human) (UniProt P10636); assay: Western blot of soluble and sarkosyl-insoluble brain fractions, antibody at 0.5 ug/mL
[4] = target: tau in samples from brains of Alzheimer's disease patients (human) (UniProt P10636); assay: immunoprecipitation from the sarkosyl-insoluble fraction, blot with K9JA
[5] = target: tau in normal control human brain sections (human) (UniProt P10636); assay: immunohistochemistry on fresh-frozen human brain sections
[6] = target: tau in samples from brains of Alzheimer's disease patients (human) (UniProt P10636); assay: as above
[7] = target: tau in normal control human brain sections (human) (UniProt P10636); assay: Western blot: RIPA-soluble and sarkosyl-insoluble frontal cortex fractions (1 HC, 4 AD) on SDS-PAGE, probed with the antibody at 0.5 ug/mL, goat anti-mouse IRDye-800
[8] = target: tau in samples from brains of Alzheimer's disease patients (human) (UniProt P10636); assay: as above
[9] = target: tau in samples from brains of Alzheimer's disease patients (human) (UniProt P10636); assay: Western blot
[10] = target: T1, adjacent tau microarray peptides with the consensus motif EIVYKSP (human); assay: peptide microarray of tau 15-mers
T1 sequence (peptide): EIVYKSP

[11] = target: T2, adjacent tau microarray peptides with the consensus motif QIVYKP (human); assay: peptide microarray of tau 15-mers
T2 sequence (peptide): QIVYKP

[12] = target: tau in samples from brains of Alzheimer's disease patients (human) (UniProt P10636); assay: Immunoprecipitation from the sarkosyl-insoluble brain fraction, goat anti-mouse magnetic beads, SDS-PAGE, blot with polyclonal K9JA; lanes alternate normal / AD extract (p-1045)
[13] = target: T3, adjacent tau microarray peptides with the consensus motif EIVYKS (human); assay: peptide microarray of tau 15-mers
T3 sequence (peptide): EIVYKS

Measured: binding

B1: mouse 14H3 antibody (antibody, mouse IgG2a, V domains shown)
VH: QVTLKESGPGILQPSQTLSLTCSFSGFSLSTYGMGVGWIRQPSGKGLEWLANIWWDDIKYYNAALKSRLTISKDTSKNQVFLKIASVDTADTATYYCARNVDYWGQGTTLTVSS
VL: DVVMTQTPLSLPVSLGDQASISCRSSQSLVHSNGNTFLHWYLQKPGQSPKLLIYKVSNRFSGVPDRFSGSGSGTDFTLKISRVEAEDLGVYFCSQSTLVPWTFGGGTKLEIK
notes: also called m14H3
not listed: [10] | [11] | [12] | [13]
binds: all other assays above

B2: mouse 9F5 antibody (antibody, mouse IgG1, V domains shown)
VH: EVQLQQSGAELVRPGASVKLSCTASGFNIKDDYMNWVKQRPERGLEWIGWIDPENGDTEYASKFQGKATMTADTSSNTAYLQFSSLTSEDTAVYYCTTSNGWGQGTLVTVST
VL: DIVMTQAAFSNPVTLGTSASISCRSSKSLLHSNGITYLYWYLQKPGQSPQLLIYQMSNLASGVPDRFSSSGSGTDFTLRISRVEAEDVGVYYCAQNLELPLTFGAGTKLELK
notes: also called m9F5; murine 9F5
binds: [10] | [11]

B3: mouse 12C4 antibody (antibody, mouse IgG2a, V domains shown)
VH: B2 VH with K38R, E59A, T91S, T112A
VL: B2 VL
notes: also called m12C4
not listed: [1] | [7] | [10] | [11] | [13]
binds: all other assays above

B4: mouse 17C12 antibody (antibody, mouse IgG2a, V domains shown)
VH: B2 VH with E1K, V2I, G26A, E59K, F83L, T112A
VL: DVVMTQTPLTLSVTIGQPASISCTSSQSLLHSNRKTYLHWLLQRPGQSPKLLIYLVSKLESGVPDRFSGSGSGTDFTLKISRVEAEDLGVYYCLQTTHFPRTFGGGTKLEIK
notes: also called m17C12
not listed: [1] | [7] | [13]
binds: all other assays above

B5: mouse 10C12 antibody (antibody, mouse IgG2a, V domains shown)
VH: B2 VH
VL: B2 VL
notes: also called m10C12
binds: [10] | [11]

B6: mouse 2D11 antibody (antibody, mouse IgG2a, V domains shown)
VH: B2 VH
VL: B2 VL
binds: [13] | [11]
